No constants are given. Whether binding was seen depends on the method and setting. Some results given as binding are weak or reduced against the parent protein; the word gives no strength.
Biological target: T1, IL-2 receptor on the surface of CTLL2 cell line (UniProt P01590)
T1 sequence (looked up) 1: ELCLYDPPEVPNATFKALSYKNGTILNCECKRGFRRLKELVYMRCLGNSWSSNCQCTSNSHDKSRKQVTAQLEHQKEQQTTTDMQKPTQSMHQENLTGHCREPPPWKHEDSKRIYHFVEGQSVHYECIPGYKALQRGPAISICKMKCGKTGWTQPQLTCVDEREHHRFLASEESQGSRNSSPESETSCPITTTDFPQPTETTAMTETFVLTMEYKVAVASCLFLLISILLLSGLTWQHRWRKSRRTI
T1 sequence (looked up) 2: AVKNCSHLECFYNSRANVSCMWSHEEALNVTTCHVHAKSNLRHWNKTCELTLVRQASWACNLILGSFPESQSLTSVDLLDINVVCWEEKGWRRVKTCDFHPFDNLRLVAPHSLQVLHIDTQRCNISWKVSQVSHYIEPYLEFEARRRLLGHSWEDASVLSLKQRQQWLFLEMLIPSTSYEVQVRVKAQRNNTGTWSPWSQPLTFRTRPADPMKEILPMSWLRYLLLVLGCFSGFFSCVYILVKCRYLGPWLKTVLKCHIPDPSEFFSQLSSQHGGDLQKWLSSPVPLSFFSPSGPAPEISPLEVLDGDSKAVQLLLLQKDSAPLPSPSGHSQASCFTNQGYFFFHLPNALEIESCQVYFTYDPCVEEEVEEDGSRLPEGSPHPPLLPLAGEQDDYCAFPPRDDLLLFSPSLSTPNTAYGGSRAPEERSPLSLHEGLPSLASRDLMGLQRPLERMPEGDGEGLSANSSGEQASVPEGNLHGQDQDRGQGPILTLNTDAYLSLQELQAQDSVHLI
T1 sequence (looked up) 3: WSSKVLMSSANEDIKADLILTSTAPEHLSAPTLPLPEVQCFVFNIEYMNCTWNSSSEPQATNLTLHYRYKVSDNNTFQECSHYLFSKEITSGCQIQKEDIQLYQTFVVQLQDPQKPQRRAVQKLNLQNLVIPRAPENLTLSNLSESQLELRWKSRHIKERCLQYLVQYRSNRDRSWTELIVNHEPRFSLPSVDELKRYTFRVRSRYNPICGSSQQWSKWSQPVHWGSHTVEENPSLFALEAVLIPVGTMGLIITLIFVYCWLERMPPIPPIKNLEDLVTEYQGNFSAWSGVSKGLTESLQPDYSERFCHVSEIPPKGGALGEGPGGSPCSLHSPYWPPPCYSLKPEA
Experiment: flow cytometry on CTLL2 cells, detection with anti 6His tag MAb

Sequences of proteins named here, by UniProt entry; tags and fusion partners are left off. A change or cut given only in a name is not applied to a line headed by its entry. A line that says so, or that is headed by a name, gives the form on record, which may keep a tag or linker.
IL-2 mutein R38A, F42A, Y45A, E62A (P60568, form named): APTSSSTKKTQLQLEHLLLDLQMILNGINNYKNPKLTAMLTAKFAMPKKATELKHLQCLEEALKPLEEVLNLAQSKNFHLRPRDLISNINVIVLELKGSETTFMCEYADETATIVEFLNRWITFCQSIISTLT
IL-2 mutein R38A, F42I, Y45N, E62L, E68V (P60568, form named): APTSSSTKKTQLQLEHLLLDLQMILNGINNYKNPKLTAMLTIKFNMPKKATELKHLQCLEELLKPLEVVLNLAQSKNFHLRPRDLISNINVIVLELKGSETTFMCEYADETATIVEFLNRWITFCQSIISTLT
IL-2 mutein R38K, F42I, Y45E, E68V (P60568, form named): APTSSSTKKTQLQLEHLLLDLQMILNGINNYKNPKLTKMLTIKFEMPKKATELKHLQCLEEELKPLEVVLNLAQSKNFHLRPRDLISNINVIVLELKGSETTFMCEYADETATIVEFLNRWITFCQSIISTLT
IL-2 mutein R38K, F42I, Y45N, E62L, E68V (P60568, form named): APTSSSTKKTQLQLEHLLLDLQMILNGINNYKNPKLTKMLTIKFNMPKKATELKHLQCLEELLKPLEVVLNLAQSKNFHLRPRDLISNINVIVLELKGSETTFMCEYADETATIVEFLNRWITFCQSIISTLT
IL-2 mutein R38K, F42K, Y45R, E62L, E68V (P60568, form named): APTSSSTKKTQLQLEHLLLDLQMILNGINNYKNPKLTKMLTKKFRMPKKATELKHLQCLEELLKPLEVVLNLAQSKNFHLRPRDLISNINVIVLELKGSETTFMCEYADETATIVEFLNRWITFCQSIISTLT
IL-2 mutein R38K, F42Q, Y45E, E68V (P60568, form named): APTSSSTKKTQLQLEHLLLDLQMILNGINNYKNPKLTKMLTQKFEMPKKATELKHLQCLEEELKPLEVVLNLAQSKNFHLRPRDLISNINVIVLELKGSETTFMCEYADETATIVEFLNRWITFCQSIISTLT

Row | binding | Substance
1 | binds | IL-2 mutein R38A, F42A, Y45A, E62A (from UniProt P60568 21-153) (ligand)
2 | binds | IL-2 mutein R38A, F42I, Y45N, E62L, E68V (from UniProt P60568 21-153) (ligand)
3 | binds | IL-2 mutein R38K, F42I, Y45E, E68V (from UniProt P60568 21-153) (ligand)
4 | binds | IL-2 mutein R38K, F42I, Y45N, E62L, E68V (from UniProt P60568 21-153) (ligand)
5 | binds | IL-2 mutein R38K, F42K, Y45R, E62L, E68V (from UniProt P60568 21-153) (ligand)
6 | binds | IL-2 mutein R38K, F42Q, Y45E, E68V (from UniProt P60568 21-153) (ligand)
